# Percent effect of library compounds

Source: ChEMBL document CHEMBL3988442, “University of Dundee, Small-Polar-MMV Screening Library” (2021).

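Assay of Toxoplasma gondii numbers, read through their beta-galactosidase reporter with a colour substrate. Compounds at 50 µM. The record gives no direction; the compounds picked for IC50 retests had high values, so higher reads as fewer parasites. Size under these conditions: about 18,000 compounds, about 170 of them at 50% or above in at least one test.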

The filed quantity is “Percent Effect” (%).
The record does not define 0% and 100%; most values in the screen are far below 50% and negative numbers occur (in some assays of this library far below -100).
Compounds were drawn at random from those tested, without regard to their results.

{"smiles": "COC(=O)NC(C)C(=O)NCCSc1nnc(C)s1", "stereo": "centres unmarked", "Percent Effect": 12.21}
{"smiles": "CC(=O)CC1COCCN1S(=O)(=O)c1cccc(F)c1", "stereo": "centres unmarked", "Percent Effect": 1.007}
{"smiles": "CCn1cnnc1CNCc1c[nH]nc1C", "Percent Effect": 8.88}
{"smiles": "N#Cc1ccc(NCCNC(=O)c2ccc(Cl)s2)nc1", "Percent Effect": -3.51}
{"smiles": "CC(C)(c1nnnn1-c1ccccc1)N1CCOCC1", "Percent Effect": -7.342}
{"smiles": "O=C1CCN(C(=O)c2cnsn2)c2ccccc2N1", "Percent Effect": 4.99}
{"smiles": "Cc1ccc(C)c(CC(=O)N(C)Cc2ncnn2C)c1", "Percent Effect": 15.83}
{"smiles": "O=C1CC(C(=O)Nc2cccnc2)c2ccccc2N1", "stereo": "centres unmarked", "Percent Effect": -0.3036}
{"smiles": "Cc1cnc(CNC(=O)CCc2ccncc2)cn1", "Percent Effect": 23.62}
{"smiles": "COc1ccccc1NCCO", "Percent Effect": 9.463}
{"smiles": "Cc1ncc(C(=O)NCCN2CCCC2)s1", "Percent Effect": -10.99}
{"smiles": "Clc1cnn(CCN2CCC3(CCNCC3)C2)c1", "Percent Effect": -3.853}
{"smiles": "CCCN(Cc1cccc(C#N)c1)C1CCS(=O)(=O)C1", "stereo": "centres unmarked", "Percent Effect": -9.777}
{"smiles": "NCc1ccc2c(N)noc2c1", "Percent Effect": -14.46}
{"smiles": "CCC(C)(C)NC(=O)Cn1ccc(C(F)(F)F)n1", "Percent Effect": 11.6}
{"smiles": "CCn1ncc(N)c1C(N)=O", "Percent Effect": -16.04}
{"smiles": "CN(CCO)C[C@@H]1CN(C(=O)CC2CCC2)C[C@@H]1CO", "Percent Effect": 8.932}
{"smiles": "CC(C)(CO)C(N)c1ccccc1", "stereo": "centres unmarked", "Percent Effect": 46.69}
{"smiles": "Cc1cc(CN(C)CCC(=O)Nc2cccnc2)no1", "Percent Effect": -8.05}
{"smiles": "Cc1ccc(C(=O)N2C[C@H](C3CC3)[C@@H](N)C2)s1", "Percent Effect": 28.25}
{"smiles": "CCn1cc(NC(=O)c2ccc(Br)o2)c(C(N)=O)n1", "Percent Effect": 19.84}
{"smiles": "CN(C)c1ncccc1CNC(=O)N1CCCC1", "Percent Effect": -6.495}
{"smiles": "NC(=O)C1(NC(=O)CC(O)c2cc(Cl)cc(Cl)c2)CC1", "stereo": "centres unmarked", "Percent Effect": -4.497}
{"smiles": "COc1ccc(NC(=O)[C@H]2CC2(C)C)cc1CO", "Percent Effect": -1.346}
{"smiles": "Cc1noc(C)c1C[S+]([O-])Cc1ccccn1", "stereo": "centres unmarked", "Percent Effect": -10.13}
{"smiles": "COCCN(CC(N)=O)CC(=O)N(C)Cc1ccco1", "Percent Effect": -13.02}
{"smiles": "COc1ccc(F)c(F)c1C(=O)NC1CCCNC1=O", "stereo": "centres unmarked", "Percent Effect": -10.18}
{"smiles": "Cc1ccncc1C(=O)N1C[C@@H](CO)[C@H](N(C)C)C1", "Percent Effect": -16.64}
{"smiles": "O=C1C=CC(=O)N1c1ccccc1OC(F)F", "Percent Effect": -5.871}
{"smiles": "Cc1ccc(C2CCCCCN2CC(=O)NC(N)=O)o1", "stereo": "centres unmarked", "Percent Effect": 7.557}
{"smiles": "Cc1nn(C)c(N(C)C)c1CNC(C)c1ccccn1", "stereo": "centres unmarked", "Percent Effect": 3.817}
{"smiles": "CC(CN)N(C)C(=O)c1ccc(C#N)cc1", "stereo": "centres unmarked", "Percent Effect": 0.3763}
{"smiles": "OCCOc1ccc(CNCCn2cccn2)c(Br)c1", "Percent Effect": 7.407}
{"smiles": "CC1CN(C(=O)c2ccc(NS(C)(=O)=O)cc2)CCO1", "stereo": "centres unmarked", "Percent Effect": 10.02}
{"smiles": "COCC(O)CNc1cc(C)nc2ccccc12", "stereo": "centres unmarked", "Percent Effect": -2.42}
{"smiles": "CC(NC(=O)Cc1cccnc1)c1nnc(N)s1", "stereo": "centres unmarked", "Percent Effect": -22.83}
{"smiles": "Cc1cc(S(N)(=O)=O)ccc1CN", "Percent Effect": 5.066}
{"smiles": "Cc1nc(-c2ccccn2)[nH]c(=O)c1CC(N)=O", "Percent Effect": 11.92}
{"smiles": "Cc1ccc(F)c(NC(=O)C2CCCN2S(C)(=O)=O)c1", "stereo": "centres unmarked", "Percent Effect": 10.53}
{"smiles": "OCc1ccc(OCCF)cn1", "Percent Effect": 40.41}
{"smiles": "COCCCn1ccc(NC(=O)NC(C)(C)C)n1", "Percent Effect": 10.96}
{"smiles": "CCc1ncnc(N2CC(NC(=O)NC)C2)c1F", "Percent Effect": -4.186}
{"smiles": "NCCc1n[nH]c(=O)n1-c1ccc(Cl)cc1", "Percent Effect": 21.71}
{"smiles": "O=c1ccn(Cc2nc(-c3ccc(Br)o3)no2)c(=O)[nH]1", "Percent Effect": 15.67}
{"smiles": "Cc1ccc(C(=O)NC(C(N)=O)c2ccc(Cl)cc2)o1", "stereo": "centres unmarked", "Percent Effect": -12.53}
{"smiles": "CNCC(=O)N1CCC(Oc2ccccc2C)CC1", "Percent Effect": -5.601}
{"smiles": "CCC(C)(CC)NC(=O)NC1CC1", "Percent Effect": -5.488}
{"smiles": "C[C@@]1(O)CCN(C(=O)CCc2cn[nH]c2)C[C@@H]1O", "Percent Effect": -1.484}
{"smiles": "CCn1ccnc1C(C)=O", "Percent Effect": 2.999}
{"smiles": "Cc1cccc(OC(F)F)c1NC(=O)N(C)CCO", "Percent Effect": 3.711}
{"smiles": "Cc1cc(Br)ccc1C(=O)N1CCCNCC1", "Percent Effect": 8.567}
{"smiles": "CCCNc1nc(C)c(C(C)=O)s1", "Percent Effect": 0.7516}
{"smiles": "CN(C)CC(C)(C)CNc1cc([C@H]2C[C@@H](N)C2)ncn1", "Percent Effect": 8.009}
{"smiles": "Cc1ncc(C(=O)N2CCOC(C#N)C2)c(Cl)c1Br", "stereo": "centres unmarked", "Percent Effect": 16.75}
{"smiles": "N#CCCN(CC1CC1)C(=O)c1cc(I)c[nH]1", "Percent Effect": 14.13}
{"smiles": "CC(C)Cc1nnc(CN)o1", "Percent Effect": 4.853}
{"smiles": "CC(CN)N(C)C(=O)c1ccc2ccccc2c1", "stereo": "centres unmarked", "Percent Effect": 11.86}
{"smiles": "CCC(C)NC(=O)NC1CCN(c2ccccn2)CC1", "stereo": "centres unmarked", "Percent Effect": -18.28}
{"smiles": "OCCN1CCN(c2ccc(CO)nn2)CC1", "Percent Effect": 4.715}
{"smiles": "CC(=O)c1ccc(S(=O)(=O)N[C@H]2CCCNC2)cc1", "Percent Effect": 5.173}

For reference, 6 entries once more:

* Cc1ccncc1C(=O)N1C[C@@H](CO)[C@H](N(C)C)C1 : -16.64%
* Cc1ccc(F)c(NC(=O)C2CCCN2S(C)(=O)=O)c1 (centres unmarked) : 10.53%
* Cc1ncc(C(=O)NCCN2CCCC2)s1 : -10.99%
* Cc1cccc(OC(F)F)c1NC(=O)N(C)CCO : 3.711%
* Cc1ncc(C(=O)N2CCOC(C#N)C2)c(Cl)c1Br (centres unmarked) : 16.75%
* CCC(C)(C)NC(=O)Cn1ccc(C(F)(F)F)n1 : 11.6%